Results are given in words; binding and its absence hold for the method and conditions named. Where a sequence is shown, tags or fusion partners need not be part of it.

The results in this text go back to article PMC10605449 (Biosensors, 2023).

This test deals with T1, Cellular biotinylated H/ACA ribonucleoprotein complex subunit Dyskerin pseudouridine synthase 1, His6-DKC1(1-514)-AviTag (UniProt O60832).
T1 sequence (chain, biotin on the AviTag (BirA, in the cells)): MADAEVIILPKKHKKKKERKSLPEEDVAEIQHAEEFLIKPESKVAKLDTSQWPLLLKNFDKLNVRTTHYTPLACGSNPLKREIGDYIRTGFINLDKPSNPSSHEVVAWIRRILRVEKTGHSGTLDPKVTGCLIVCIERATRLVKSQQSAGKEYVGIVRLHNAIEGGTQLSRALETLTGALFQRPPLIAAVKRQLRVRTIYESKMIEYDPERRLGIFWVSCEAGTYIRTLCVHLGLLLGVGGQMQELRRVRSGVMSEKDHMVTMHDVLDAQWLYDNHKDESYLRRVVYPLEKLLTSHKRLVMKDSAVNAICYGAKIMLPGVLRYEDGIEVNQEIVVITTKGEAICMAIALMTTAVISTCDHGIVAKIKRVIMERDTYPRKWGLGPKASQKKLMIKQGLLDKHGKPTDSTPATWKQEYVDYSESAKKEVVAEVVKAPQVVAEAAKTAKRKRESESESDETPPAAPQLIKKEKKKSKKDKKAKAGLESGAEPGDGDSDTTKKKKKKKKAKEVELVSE
The test is described as follows: SPR; cellular biotinylated His6-DKC1(1-514)-AviTag captured from soluble cell lysate (130 to 175 RU) on neutravidin-coated CM5 chip; RuvBL1/RuvBL2 complexes injected, 10 concentrations, 2-fold series from 0.05 µM; 20 mM NaKPi pH 7.5, 150 mM NaCl, 5 mM MgCl2, 1 mM DTT, 0.05% Tween 20; 25 °C; 1:1 Langmuir fit; only the binder purified.

Consider His6-RuvBL1_ΔDII/RuvBL2_ΔDII (complex), for which the binding result was “no binding (tested: 0.05 µM (highest concentration injected))”.
